Experimental data: PubChem BioAssay AID1259254 (NCATS, 2017)
The deposit covers about 59,000 reagents; shown is an unselected part. Of all reagents, about 1,550 (2.6%) got an active call. 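G2 share is only a proxy for re-replication; each gene was hit by three separate siRNAs, and active genes were retested.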 The numbers tell different reagents against one gene apart. Further read-outs or replicates are left out here. No sequences are given here. Not stated in the record: the amount of reagent.

Assay: 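Genome-wide screen for genes that prevent DNA re-replication in cancer cells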 (primary screen)
Cell system: human HCT116 colorectal cancer cells
Reagent: single siRNA against human genes
Duration: 3 days
Measurement: 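Imaged Hoechst DNA stain sorts each cell into a cycle phase by DNA amount; per plate, G2 fraction set to 0% for non-targeting and 100% for GMNN siRNA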
Reading the numbers: G2 robust z-score: higher = more G2 cells, more excess DNA replication
Call rule: 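Active siRNAs have a G2 robust z of 5 or more median absolute deviations over the median, which in these data means about 38% or higher of GMNN control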

gene symbol	reagent no.	G2 robust z-score	call
SRP72	1	0.739	inactive
SRP72	2	-0.521	inactive
SRP72	3	1.82	inactive
METTL9	1	0.385	inactive
METTL9	2	0.829	inactive
METTL9	3	0.0553	inactive
LHX9	1	0.598	inactive
LHX9	2	-1.26	inactive
LHX9	3	0.427	inactive
CEACAM21	1	0.229	inactive
CEACAM21	2	0.222	inactive
CEACAM21	3	0.388	inactive
RPL15P3	1	4.02	inactive
RPL15P3	2	0.888	inactive
RPL15P3	3	2.32	inactive
CCR7	1	1.19	inactive
CCR7	2	0.303	inactive
CCR7	3	-0.179	inactive
PTDSS2	1	1.49	inactive
PTDSS2	2	-0.1	inactive
PTDSS2	3	3.81	inactive
TDO2	1	6.5	active
TDO2	2	0.279	inactive
TDO2	3	1.41	inactive
PCDHB8	1	1.86	inactive
PCDHB8	2	-0.873	inactive
PCDHB8	3	-1.13	inactive
DOK5	1	0.0536	inactive
DOK5	2	1.33	inactive
DOK5	3	-0.137	inactive
SYNE2	1	1.63	inactive
SYNE2	2	0.599	inactive
SYNE2	3	-0.801	inactive
P2RY12	1	-0.524	inactive
P2RY12	2	0.502	inactive
P2RY12	3	-0.533	inactive
MROH1	1	-0.383	inactive
MROH1	2	0.258	inactive
MROH1	3	-0.549	inactive
MOSPD1	1	1.1	inactive
MOSPD1	2	-0.629	inactive
MOSPD1	3	-0.489	inactive
ODAM	1	0.346	inactive
ODAM	2	-0.115	inactive
ODAM	3	0.154	inactive
DUS4L	1	0.97	inactive
DUS4L	2	2.78	inactive
DUS4L	3	0.856	inactive
RPF1	1	0.218	inactive
RPF1	2	1.39	inactive
RPF1	3	-0.58	inactive
EML4	1	0.0315	inactive
EML4	2	1.67	inactive
EML4	3	-0.701	inactive
ERCC3	1	-0.161	inactive
ERCC3	2	-1.2	inactive
ERCC3	3	0.776	inactive
PCBP1	1	-0.255	inactive
PCBP1	2	0.468	inactive
PCBP1	3	-0.462	inactive
CD33	1	4.18	inactive
CD33	2	-0.587	inactive
CD33	3	0.949	inactive
MTIF3	1	-0.386	inactive
MTIF3	2	-0.391	inactive
MTIF3	3	1.81	inactive
DEFB135	1	-0.921	inactive
DEFB135	2	1.02	inactive
DEFB135	3	-0.59	inactive

Called active, among the entries above:
gene symbol	reagent no.	G2 robust z-score	call
TDO2	1	6.5	active
